PubChem BioAssay AID1259424, University of Nebraska Medical Center, 2018
Here is an unselected part of about 14,000 reagents. 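Higher correlation or smaller distance means closer resemblance to KSR1 loss; control wells, including KSR1 knockdowns, recur on many plates.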 Not given: the time to read-out.

Aim: 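Rank knockdowns across the genome by resemblance to the KSR1 depletion profile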 (primary screen)
Cell system: human HCT116 colon cancer cells
Reagent: siRNA pool against human genes, 50 nM
Measured: 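Six signature mRNAs by branched-DNA multiplex assay, scaled to two housekeeping genes and non-targeting median, log2; matched to mean KSR1 knockdown profile by Pearson correlation and euclidean distance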
Scale: mean correlation with KSR1 profile and KSR1 correlation: higher = expression change more like KSR1 knockdown; mean distance from KSR1 profile: higher = expression change less like KSR1 knockdown

no.	target gene	mean correlation with KSR1 profile	mean distance from KSR1 profile	KSR1 correlation, replicate 1	KSR1 correlation, replicate 2	KSR1 correlation, replicate 3
1	GSKIP	-0.307	3.53	-0.588	-0.135	-0.0545
2	AMELX	0.821	1.32	0.75	0.731	0.831
3	RSRC2	-0.137	1.31	-0.277	-0.22	0.05
4	PLXNC1	0.804	1.47	0.776	0.792	0.767
5	METAP2	-0.554	2.11	-0.451	-0.679	-0.247
6	PPM1J	0.16	2.55	-0.143	0.167	0.426
7	ASIC1	-0.0349	3.85	0.0214	-0.0709	-0.202
8	PTS	-0.618	1.98	-0.763	-0.677	-0.389
9	APPBP2	-0.695	1.36	-0.605	-0.404	-0.827
10	SMAP2	0.382	1.44	0.215	0.174	0.571
11	YIPF1	0.477	1.35	0.407	0.378	0.548
12	PCDH20	-0.298	1.8	-0.659	-0.319	-0.194
13	KATNAL1	0.495	1.87	0.345	0.487	0.472
14	ANXA3	0.0481	1.37	0.0943	-0.093	0.122
15	CEP55	-0.364	3.63	-0.335	-0.045	-0.433
16	LILRP2	0.141	2.02	0.186	0.084	0.107
17	MRI1	0.769	3.49	0.665	0.738	0.829
18	RS1	0.0712	1.72	0.124	0.196	-0.214
19	TEKT2	0.835	0.845	0.596	0.957	0.539
20	MEDAG	0.165	1.66	0.411	-0.512	-0.241
21	UAP1	0.0966	1.8	0.149	-0.114	0.355
22	RIC8A	0.357	2.17	0.329	0.399	0.377
23	NAP1L1	-0.0965	2.93	-0.65	-0.484	0.386
24	VPS26A	-0.25	1.39	0.0445	-0.67	0.103
25	ARID5A	0.0756	1.1	0.223	0.12	-0.0428
26	LAMC2	-0.0779	1.35	0.0367	-0.157	-0.231
27	MKRN2	-0.21	1.48	0.334	-0.376	-0.286
28	SCGB3A2	-0.131	1.31	0.188	-0.221	0.0184
29	CAPG	-0.0875	2.41	-0.148	-0.103	0.0731
30	PCDHA10	0.718	0.94	0.407	0.846	0.141
31	LIN37	-0.264	3.73	0.4	0.435	-0.56
32	RAP2A	-0.135	1.99	-0.364	0.249	-0.368
33	EEFSEC	-0.555	2.44	-0.641	-0.424	-0.548
34	MESP1	0.345	2.39	0.233	0.132	0.396
35	MEF2D	-0.42	2.74	-0.295	-0.341	-0.322
36	TBL1XR1	0.756	1.74	0.76	0.743	0.635
37	KIF16B	0.175	1.63	0.187	0.0441	0.225
38	MED8	-0.287	4.6	-0.107	-0.525	-0.499
39	P2RY8	0.755	2.04	0.785	0.812	0.776
40	CBX2	-0.32	2.87	-0.349	-0.425	-0.35
41	SCN9A	0.769	0.6	0.717	0.634	0.962
42	ITGAM	-0.464	2.63	-0.423	-0.304	-0.412
43	MEGF8	0.168	1.56	0.285	0.233	-0.0163
44	RNF26	-0.515	2.27	-0.6	-0.572	-0.483
45	TBC1D23	-0.112	1.71	-0.387	-0.17	0.177
46	GRAMD2B	-0.528	3.64	-0.482	-0.512	-0.57
47	GTF2B	0.132	1.57	0.304	0.203	-0.00861
48	GTPBP2	-0.28	1.97	-0.183	-0.242	-0.133
49	TSPAN31	0.68	0.805	0.561	0.886	0.763
50	CFAP300	0.368	1.63	0.215	0.257	0.316

An excerpt from above, reduced to “KSR1 correlation, replicate 1”:
CEP55: -0.335
LILRP2: 0.186
MRI1: 0.665
